One test deals with ppGalNAc-T3 sensor. As to the kind of experiment: T3 sensor activation Q score (MG/GFP ratio z-score vs DMSO controls) (SD units); higher = more sensor activation (inhibition of ppGalNAc-T3 glycosylation). Particulars: HEK293 sensor cells; 10 µM; 6 h. As to the method:
(§1)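 Cells were treated with compound at 10 uM for 6 h, then MG/GFP ratio was read by flow cytometry (10,000 cells per well, duplicate wells). Q = (R - R_neg)/SD_neg relative to DMSO vehicle controls; the signal rises when the glycosyltransferase is inhibited.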

The next test concerns ppGalNAc-T2 sensor. The test is described as follows: T2 sensor activation Q score (MG/GFP ratio z-score vs DMSO controls) (SD units); higher = more sensor activation (inhibition of ppGalNAc-T2 glycosylation). Particulars: HEK293 sensor cells; 10 µM; 6 h. Here is the method: as §1

This is one part of the list. Most values lie at the level of the controls, where differences are scatter.

As for `COc1ccc(NC(=O)C2CCCCC2C(=O)O)cc1` (stereo not drawn), in the test on ppGalNAc-T3 sensor, the “T3 sensor activation Q score” value was 0.27. Besides, the “T2 sensor activation Q score” value in the test on ppGalNAc-T2 sensor is -0.125.
Consider `C=CCOc1ccccc1CN1CCCCC1`, for which the “T3 sensor activation Q score” value in the test on ppGalNAc-T3 sensor turned out to be 0.38. Also, the “T2 sensor activation Q score” value in the test on ppGalNAc-T2 sensor was -0.105.
Take `CCNCC(O)CN1CCC(C)CC1` (stereo not drawn): the “T3 sensor activation Q score” value in the test on ppGalNAc-T3 sensor is 0.155. The “T2 sensor activation Q score” value with ppGalNAc-T2 sensor amounted to 0.035.
Consider `O=C(Nc1ccccc1)NC1CCCCCCC1`, for which the “T3 sensor activation Q score” value in the test on ppGalNAc-T3 sensor was -1.26. The “T2 sensor activation Q score” value in the test with ppGalNAc-T2 sensor is -0.37.
On to `Cc1ccc(S(=O)(=O)CCC(=O)O)cc1`, for which the “T3 sensor activation Q score” value with ppGalNAc-T3 sensor was 0.18. Besides, the “T2 sensor activation Q score” value in the test with ppGalNAc-T2 sensor turned out to be 0.33.
With `Nc1nc(N)nc(-c2ccccc2)n1`, the “T3 sensor activation Q score” value with ppGalNAc-T3 sensor turned out to be 0.45. Also, the “T2 sensor activation Q score” value with ppGalNAc-T2 sensor was -0.425.
Taken in the same sequence, the figures for `Cc1cccc(C)c1NC(=O)CN1CCCCC1` were 0.75 and 0.375.
Taken in the same sequence, the figures for `O=[N+]([O-])c1cc2c(cc1CN1CCN(c3ccccc3)CC1)OCO2` were 0.435 and 0.495.
As for `O=C1CC(N2CCN(c3ccc(F)cc3)CC2)C(=O)N1c1cccc(Cl)c1` (stereo not drawn), the “T3 sensor activation Q score” value with ppGalNAc-T3 sensor is 0.15. Moreover, in the test on ppGalNAc-T2 sensor, the “T2 sensor activation Q score” value was -0.22.
On to `CCc1c(O)nc(SC(C)CC)n(-c2ccccc2)c1=O` (stereo not drawn), for which the “T3 sensor activation Q score” value with ppGalNAc-T3 sensor is -0.24. Moreover, the “T2 sensor activation Q score” value in the test with ppGalNAc-T2 sensor was 0.39.
Taken in the same sequence, the figures for `CCc1ccc(S(=O)(=O)Nc2ccccc2OC)cc1` were -0.645 and -1.23.
Regarding `OC(COc1ccc2c(c1)CCC2)CN1CCN(c2ccccc2)CC1` (stereo not drawn), in the test on ppGalNAc-T3 sensor, the “T3 sensor activation Q score” value stood at 0.495. Moreover, the “T2 sensor activation Q score” value with ppGalNAc-T2 sensor is -0.265.
Consider `CC(=O)C1=C(O)C(=O)N(CCO)C1c1ccc(F)cc1` (stereo not drawn), for which the “T3 sensor activation Q score” value in the test with ppGalNAc-T3 sensor stood at 0.29. Besides, the “T2 sensor activation Q score” value in the test on ppGalNAc-T2 sensor is -0.51.
For `COc1[nH]c2ccccc2c1C=NO`, the “T3 sensor activation Q score” value in the test with ppGalNAc-T3 sensor is -0.4. The “T2 sensor activation Q score” value in the test with ppGalNAc-T2 sensor was -0.105.
With `OC1CCN(Cc2ccc3c(c2)OCO3)CC1`, the “T3 sensor activation Q score” value in the test on ppGalNAc-T3 sensor was 0.4. For the same compound, in the test on ppGalNAc-T2 sensor, the “T2 sensor activation Q score” value is -0.045.
Turning to `CCN(CCN(C)C)Cc1cccc(Br)c1`, the “T3 sensor activation Q score” value in the test with ppGalNAc-T3 sensor turned out to be 0.2. Further, the “T2 sensor activation Q score” value in the test with ppGalNAc-T2 sensor worked out at 0.365.
On to `Cc1onc(-c2ccccc2)c1C(=O)NN`, for which the “T3 sensor activation Q score” value in the test on ppGalNAc-T3 sensor is -0.095. Also, the “T2 sensor activation Q score” value in the test with ppGalNAc-T2 sensor is -1.01.
In the case of `O=C(c1ccc(Br)o1)N(C1CCCCC1)C1CCCCC1`, the “T3 sensor activation Q score” value in the test on ppGalNAc-T3 sensor is 0.44. Moreover, the “T2 sensor activation Q score” value in the test on ppGalNAc-T2 sensor worked out at 0.9.
Take `CCc1ccc(CN2CCN(Cc3ccc4c(c3)OCO4)CC2)cc1`: the “T3 sensor activation Q score” value in the test on ppGalNAc-T3 sensor is 0.32. Moreover, the “T2 sensor activation Q score” value with ppGalNAc-T2 sensor amounted to 0.415.
As for `CC1C(c2ccccc2)N(C)CCC1(O)c1ccccc1` (stereo not drawn), in the test with ppGalNAc-T3 sensor, the “T3 sensor activation Q score” value was found to be 0.7. For the same compound, the “T2 sensor activation Q score” value with ppGalNAc-T2 sensor was -0.46.
Turning to `CC(=O)Nc1ccc(S(=O)(=O)N2CCCC2)cc1`, the “T3 sensor activation Q score” value with ppGalNAc-T3 sensor was -0.08. Further, the “T2 sensor activation Q score” value with ppGalNAc-T2 sensor was -0.375.
With `CCCCN(C)C1CCN(Cc2ccccc2)CC1`, in the test on ppGalNAc-T3 sensor, the “T3 sensor activation Q score” value was determined as 0.75. Besides, in the test with ppGalNAc-T2 sensor, the “T2 sensor activation Q score” value is -0.115.
Take `Cc1ccc(NC(=O)COc2ccc([N+](=O)[O-])cc2C)c(Br)c1`: the “T3 sensor activation Q score” value in the test with ppGalNAc-T3 sensor was -0.345. In addition, the “T2 sensor activation Q score” value in the test with ppGalNAc-T2 sensor amounted to 0.69.
For `Cc1cc(Cl)ccc1NCC(=O)NN`, the “T3 sensor activation Q score” value in the test with ppGalNAc-T3 sensor was -0.42. Besides, the “T2 sensor activation Q score” value in the test on ppGalNAc-T2 sensor is 0.875.
The matching figures for `CCOc1cc(CNc2ccc3c(c2)CCC3)ccc1O`: 0.465 and -0.2.
For `Cc1ccc(C(=O)/C=C(\c2ccccc2)N2CCCCC2)cc1`, the “T3 sensor activation Q score” value in the test with ppGalNAc-T3 sensor is -0.545. In addition, in the test on ppGalNAc-T2 sensor, the “T2 sensor activation Q score” value was 0.985.
On to `CC(=O)c1cccc(NS(=O)(=O)c2ccc(Cl)cc2)c1`, for which the “T3 sensor activation Q score” value in the test on ppGalNAc-T3 sensor turned out to be 0.22. Also, the “T2 sensor activation Q score” value in the test with ppGalNAc-T2 sensor is 0.19.
The matching figures for `CN1C(=O)CC(N2CCN(Cc3ccccc3)CC2)C1=O` (stereo not drawn): 0.505 and -0.205.
For the compound `Cc1ccc(OCCCCN2CCCCC2)cc1`, the “T3 sensor activation Q score” value in the test with ppGalNAc-T3 sensor came to 0.34. Moreover, the “T2 sensor activation Q score” value in the test on ppGalNAc-T2 sensor is -0.625.
Taken in the same sequence, the figures for `COc1ccccc1C(=O)Nc1sc2c(c1C(N)=O)CCCC2` were -1.13 and -1.29.
For the compound `O=S(=O)(c1cccc(Cl)c1Cl)N1CCCCC1`, the “T3 sensor activation Q score” value in the test on ppGalNAc-T3 sensor was -0.045. The “T2 sensor activation Q score” value in the test on ppGalNAc-T2 sensor amounted to 0.03.
`CC=CC=CC(=O)Nc1c[nH]c(=O)[nH]c1=O`: in the test on ppGalNAc-T3 sensor, the “T3 sensor activation Q score” value is 0.11. Moreover, the “T2 sensor activation Q score” value with ppGalNAc-T2 sensor worked out at 0.34.
On to `O=C(O)c1ccc(-n2cnnn2)cc1`, for which the “T3 sensor activation Q score” value with ppGalNAc-T3 sensor is 0.55. The “T2 sensor activation Q score” value in the test with ppGalNAc-T2 sensor amounted to 0.005.
Consider `CCOc1ccc(NC(=O)Cc2ccccc2)cc1`, for which the “T3 sensor activation Q score” value with ppGalNAc-T3 sensor was -0.23. The “T2 sensor activation Q score” value in the test with ppGalNAc-T2 sensor was -0.29.

The record behind these values is the supplement of paper PMC5407854, “Inhibitor of ppGalNAc-T3-mediated O-glycosylation blocks cancer cell invasiveness and lowers FGF23 levels” (eLife, 2017).
